Literature values in patent US20080081826A1, “SYSTEM FOR EFFECTING WEIGHT LOSS” (priority 2006, published 2008).
Some entries share one result that the patent states for a list of compounds. Some ranges recur; such a range may be that of the whole group of compounds.

Conditions: literature; cited from earlier work

Structure (SMILES)	weight loss of body weight for drug compared to placebo
CC(C)CC(N(C)C)C1(c2ccc(Cl)cc2)CCC1 (centres unmarked) [sibutramine, N,N-dimethyl-1-[1-(4-chlorophenyl)cyclobutyl]-3-methylbutylamine]	5%-10%
CC(C)(N)Cc1ccccc1 [phentermine]	5%-10%
